Where a name gives a salt, the structure may show the parent alone. The list shows a part of the results. Repeats in this data set agree poorly, so a single value says little.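 FDA-approved drugs were each paired with colistin at one-eighth its MIC and screened against a multidrug-resistant, mcr-1-positive clinical E. coli isolate, with OD600 read after 24 h. Drug-free bacteria served as growth control, plain broth as blank. Combinations were active if OD600 dropped below 0.2.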
Tested on: Escherichia coli 42 (mcr-1-positive clinical isolate)
Assay: OD600 after 24 h growth with compound plus colistin (absorbance units (OD600)); higher = more bacterial growth (less inhibition)
Details: first compound 25 µM; colistin concentration 0.5 ug/mL; incubation time 24 h; 37 °C

SMILES	OD600
CO[C@@]1(NC(=O)CSCC#N)C(=O)N2C(C(=O)O)=C(CSc3nnnn3C)CS[C@@H]21 [Cefmetazole sodium] + CCC(C)CCCC(=O)N[C@@H](CCN)C(=O)N[C@H](C(=O)N[C@@H](CCN)C(=O)N[C@H]1CCNC(=O)[C@H]([C@@H](C)O)NC(=O)[C@H](CCN)NC(=O)[C@H](CCN)NC(=O)[C@H](CC(C)C)NC(=O)[C@@H](CC(C)C)NC(=O)[C@H](CCN)NC1=O)[C@@H](C)O [colistin]	inactive: 0.978
Nc1ccc(S(=O)(=O)Nc2ccccn2)cc1 [Sulfapyridine] + CCC(C)CCCC(=O)N[C@@H](CCN)C(=O)N[C@H](C(=O)N[C@@H](CCN)C(=O)N[C@H]1CCNC(=O)[C@H]([C@@H](C)O)NC(=O)[C@H](CCN)NC(=O)[C@H](CCN)NC(=O)[C@H](CC(C)C)NC(=O)[C@@H](CC(C)C)NC(=O)[C@H](CCN)NC1=O)[C@@H](C)O [colistin]	inactive: 1.11
CN(C)c1ccc2nc3ccc(=[N+](C)C)cc-3sc2c1 [Methylene Blue trihydrate] + CCC(C)CCCC(=O)N[C@@H](CCN)C(=O)N[C@H](C(=O)N[C@@H](CCN)C(=O)N[C@H]1CCNC(=O)[C@H]([C@@H](C)O)NC(=O)[C@H](CCN)NC(=O)[C@H](CCN)NC(=O)[C@H](CC(C)C)NC(=O)[C@@H](CC(C)C)NC(=O)[C@H](CCN)NC1=O)[C@@H](C)O [colistin]	inactive: 0.922
CC(=O)N1CCN(c2ccc(OCC3COC(Cn4ccnc4)(c4ccc(Cl)cc4Cl)O3)cc2)CC1 (stereo not drawn) [Ketoconazole] + CCC(C)CCCC(=O)N[C@@H](CCN)C(=O)N[C@H](C(=O)N[C@@H](CCN)C(=O)N[C@H]1CCNC(=O)[C@H]([C@@H](C)O)NC(=O)[C@H](CCN)NC(=O)[C@H](CCN)NC(=O)[C@H](CC(C)C)NC(=O)[C@@H](CC(C)C)NC(=O)[C@H](CCN)NC1=O)[C@@H](C)O [colistin]	inactive: 1.1
Cc1onc(-c2c(Cl)cccc2Cl)c1C(=O)N[C@@H]1C(=O)N2[C@@H]1SC(C)(C)[C@@H]2C(=O)O [Dicloxacillin Sodium hydrate] + CCC(C)CCCC(=O)N[C@@H](CCN)C(=O)N[C@H](C(=O)N[C@@H](CCN)C(=O)N[C@H]1CCNC(=O)[C@H]([C@@H](C)O)NC(=O)[C@H](CCN)NC(=O)[C@H](CCN)NC(=O)[C@H](CC(C)C)NC(=O)[C@@H](CC(C)C)NC(=O)[C@H](CCN)NC1=O)[C@@H](C)O [colistin]	inactive: 1.04
Cc1cccc(CN2CCN(C(c3ccccc3)c3ccc(Cl)cc3)CC2)c1 (stereo not drawn) [Meclizine dihydrochloride] + CCC(C)CCCC(=O)N[C@@H](CCN)C(=O)N[C@H](C(=O)N[C@@H](CCN)C(=O)N[C@H]1CCNC(=O)[C@H]([C@@H](C)O)NC(=O)[C@H](CCN)NC(=O)[C@H](CCN)NC(=O)[C@H](CC(C)C)NC(=O)[C@@H](CC(C)C)NC(=O)[C@H](CCN)NC1=O)[C@@H](C)O [colistin]	inactive: 0.839
CNC(=C[N+](=O)[O-])NCCSCc1csc(CN(C)C)n1 [Nizatidine] + CCC(C)CCCC(=O)N[C@@H](CCN)C(=O)N[C@H](C(=O)N[C@@H](CCN)C(=O)N[C@H]1CCNC(=O)[C@H]([C@@H](C)O)NC(=O)[C@H](CCN)NC(=O)[C@H](CCN)NC(=O)[C@H](CC(C)C)NC(=O)[C@@H](CC(C)C)NC(=O)[C@H](CCN)NC1=O)[C@@H](C)O [colistin]	inactive: 0.874
CC[C@H](C)[C@H](N)C1=N[C@H](C(=O)N[C@@H](CC(C)C)C(=O)N[C@H](CCC(=O)O)C(=O)N[C@H](C(=O)N[C@H]2CCCCNC(=O)[C@H](CC(N)=O)NC(=O)[C@@H](CC(=O)O)NC(=O)[C@H](Cc3cnc[nH]3)NC(=O)[C@@H](Cc3ccccc3)NC(=O)[C@H]([C@@H](C)CC)NC(=O)[C@@H](CCCN)NC2=O)[C@@H](C)CC)CS1 [Bacitracin] + CCC(C)CCCC(=O)N[C@@H](CCN)C(=O)N[C@H](C(=O)N[C@@H](CCN)C(=O)N[C@H]1CCNC(=O)[C@H]([C@@H](C)O)NC(=O)[C@H](CCN)NC(=O)[C@H](CCN)NC(=O)[C@H](CC(C)C)NC(=O)[C@@H](CC(C)C)NC(=O)[C@H](CCN)NC1=O)[C@@H](C)O [colistin]	inactive: 1.01
